Reference: PMC8803816

The chains behind the UniProt entries cited, without tags or fusion partners.
UniProt Q9UDY8: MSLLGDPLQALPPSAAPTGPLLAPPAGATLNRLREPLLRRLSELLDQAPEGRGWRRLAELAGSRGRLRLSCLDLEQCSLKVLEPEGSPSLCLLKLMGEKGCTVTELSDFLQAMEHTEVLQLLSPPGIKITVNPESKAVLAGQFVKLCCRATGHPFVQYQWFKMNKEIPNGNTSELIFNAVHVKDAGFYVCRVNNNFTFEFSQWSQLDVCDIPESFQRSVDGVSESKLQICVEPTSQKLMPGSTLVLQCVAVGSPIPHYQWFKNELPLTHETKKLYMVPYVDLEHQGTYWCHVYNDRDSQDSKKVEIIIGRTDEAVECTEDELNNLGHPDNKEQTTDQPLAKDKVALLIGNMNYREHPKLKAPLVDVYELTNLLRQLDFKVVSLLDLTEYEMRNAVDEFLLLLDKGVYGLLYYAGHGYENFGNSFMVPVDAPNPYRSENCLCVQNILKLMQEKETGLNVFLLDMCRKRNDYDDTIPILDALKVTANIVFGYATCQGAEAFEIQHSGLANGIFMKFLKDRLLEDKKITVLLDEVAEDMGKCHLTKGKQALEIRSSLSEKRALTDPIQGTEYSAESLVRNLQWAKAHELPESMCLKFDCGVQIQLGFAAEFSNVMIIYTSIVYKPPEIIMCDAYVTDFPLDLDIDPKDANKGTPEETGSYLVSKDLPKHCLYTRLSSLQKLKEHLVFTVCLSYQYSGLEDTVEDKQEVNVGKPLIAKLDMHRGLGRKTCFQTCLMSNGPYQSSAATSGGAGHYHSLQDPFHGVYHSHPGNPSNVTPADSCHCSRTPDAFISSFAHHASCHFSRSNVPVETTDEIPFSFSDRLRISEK

Biological target: T1, B cell lymphoma/leukemia 10 (BCL10) (human (endogenous in Jurkat)) (UniProt O95999)
T1 sequence: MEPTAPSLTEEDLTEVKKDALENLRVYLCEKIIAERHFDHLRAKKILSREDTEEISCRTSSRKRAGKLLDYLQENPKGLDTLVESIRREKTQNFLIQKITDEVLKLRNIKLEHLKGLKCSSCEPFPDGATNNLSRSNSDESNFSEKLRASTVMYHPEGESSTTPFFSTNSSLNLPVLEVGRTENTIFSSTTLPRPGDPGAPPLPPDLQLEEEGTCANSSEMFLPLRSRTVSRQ
Assay: affinity purification with mass spectrometry; anti-BCL10 (C-17) IP from CK1α KO Jurkat T cells reconstituted with CK1α WT, untreated or P/I stimulated 20 min; 1% NP40 buffer; on-bead digestion, quantitative LC-MS/MS (n = 3)

binding: binds
Substance: Mucosa-associated lymphoid tissue protein 1 (MALT1) (from UniProt Q9UDY8 1-824)

Results are given in words; binding and its absence hold for the method and conditions named. In cells and extracts the contact can be indirect. A yes stands for co-enrichment or nearness to the bait. Other partners may have been found.
